Values from PubChem BioAssay AID1224830 (NIAID, 2016).
Assay: 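Regulators of TLR4 signalling towards TNF-alpha in macrophage-like cells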 (primary screen). Cell system: human THP-1 monocytic leukaemia cells, TNF dual-luciferase reporter clone, PMA-differentiated to macrophage-like cells. Knock-down reagent: siRNA pool against human genes, 50 nM. Time to read-out: LPS for 4 h, given about 3 days after siRNA transfection. Challenge: bacterial LPS (TLR4 ligand), 10 ng/ml. Measurement: 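TNF firefly reporter luminescence divided by renilla, normalised to the plate median, then turned into a robust z-score for each replicate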. Scale: TNF reporter robust z-score: higher = stronger TNF reporter response to LPS. Hit rule: 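Each well counts as active if its z-score is over 2.8 or under -1.5; controls are left without a call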.
Here is an unselected part of about 18,000 reagents tested. In the full data, about 2,900 (16%) were called active. 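Calls are made per well; low scores hint the gene aids the LPS response, high scores that it dampens it.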 Repeated entries: four replicate wells of each siRNA pool.

Target gene	TNF reporter robust z-score	call
ANKRD20A2P	-1.29	inactive
ANKRD20A2P	0.8	inactive
ANKRD20A2P	1.44	inactive
ANKRD20A2P	1.09	inactive
SULT1E1	-0.8	inactive
SULT1E1	-0.24	inactive
SULT1E1	-0.15	inactive
SULT1E1	1.14	inactive
PITRM1	-0.17	inactive
PITRM1	0.33	inactive
PITRM1	2.15	inactive
PITRM1	0.07	inactive
CRACDL	-0.67	inactive
CRACDL	-1.05	inactive
CRACDL	-0.6	inactive
CRACDL	0.08	inactive
ZMYND12	0.05	inactive
ZMYND12	0.39	inactive
ZMYND12	-0.05	inactive
ZMYND12	0.25	inactive
FSHB	0.58	inactive
FSHB	-0.33	inactive
FSHB	0.05	inactive
FSHB	-0.04	inactive
BTNL3	-1.24	inactive
BTNL3	-0.13	inactive
BTNL3	-0.19	inactive
BTNL3	-0.34	inactive
SELENOH	-0.29	inactive
SELENOH	0.59	inactive
SELENOH	0.13	inactive
SELENOH	0.03	inactive
DMTN	-0.15	inactive
DMTN	-0.06	inactive
DMTN	-0.27	inactive
DMTN	0.58	inactive
EVI2B	-0.68	inactive
EVI2B	-0.21	inactive
EVI2B	0.08	inactive
EVI2B	0.06	inactive
STARD7	-0.3	inactive
STARD7	1.11	inactive
STARD7	-0.37	inactive
STARD7	0.42	inactive
KANK1	-0.35	inactive
KANK1	0.51	inactive
KANK1	0.4	inactive
KANK1	0.29	inactive
